Positions count from the first letter of the chain named. No constants are given. Whether binding was seen depends on the method and setting. In cells and extracts the contact can be indirect. Some entries that bind do so weakly or less than the wild type. For part of these data: Where a sequence is shown, tags or fusion partners need not be part of it.
Key:
[1] = target: T1, CACNG1, endogenous (mouse (endogenous in MIN6)) (UniProt O70578); test: co-IP; endogenous proteins in the MIN6 cell and macrophage coculture system (n = 1)
T1 sequence: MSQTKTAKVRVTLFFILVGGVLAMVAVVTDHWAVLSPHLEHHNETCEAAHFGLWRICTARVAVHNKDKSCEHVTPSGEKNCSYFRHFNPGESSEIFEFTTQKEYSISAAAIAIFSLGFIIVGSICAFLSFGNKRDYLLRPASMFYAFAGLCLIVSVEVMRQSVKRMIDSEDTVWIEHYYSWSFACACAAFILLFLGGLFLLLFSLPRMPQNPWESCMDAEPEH

Amino acid sequences for entries named in this document (tags omitted).
UniProt P62956: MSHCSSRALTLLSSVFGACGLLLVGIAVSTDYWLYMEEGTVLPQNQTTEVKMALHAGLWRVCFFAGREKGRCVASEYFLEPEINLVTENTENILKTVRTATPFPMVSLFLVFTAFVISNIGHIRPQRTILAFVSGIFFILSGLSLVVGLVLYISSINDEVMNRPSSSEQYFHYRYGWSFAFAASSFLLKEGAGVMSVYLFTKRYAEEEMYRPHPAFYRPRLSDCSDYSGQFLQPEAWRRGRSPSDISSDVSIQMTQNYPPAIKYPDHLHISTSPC
UniProt P16110: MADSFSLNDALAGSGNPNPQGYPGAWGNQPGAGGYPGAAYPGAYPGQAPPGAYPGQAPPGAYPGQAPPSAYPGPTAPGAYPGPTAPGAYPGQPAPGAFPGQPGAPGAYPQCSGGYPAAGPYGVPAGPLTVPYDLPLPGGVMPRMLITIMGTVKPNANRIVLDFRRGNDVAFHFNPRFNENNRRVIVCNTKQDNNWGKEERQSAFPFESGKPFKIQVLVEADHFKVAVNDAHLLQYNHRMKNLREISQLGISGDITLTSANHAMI

[2] = target: T2, CACNG4 (UniProt Q9JJV4); test: co-IP; cells transfected with plasmids for 48 h (MIN6 and 293T), lysate incubated overnight at 4 °C with bead-linked antibody to the bait protein, blots for Flag and GFP
T2 sequence: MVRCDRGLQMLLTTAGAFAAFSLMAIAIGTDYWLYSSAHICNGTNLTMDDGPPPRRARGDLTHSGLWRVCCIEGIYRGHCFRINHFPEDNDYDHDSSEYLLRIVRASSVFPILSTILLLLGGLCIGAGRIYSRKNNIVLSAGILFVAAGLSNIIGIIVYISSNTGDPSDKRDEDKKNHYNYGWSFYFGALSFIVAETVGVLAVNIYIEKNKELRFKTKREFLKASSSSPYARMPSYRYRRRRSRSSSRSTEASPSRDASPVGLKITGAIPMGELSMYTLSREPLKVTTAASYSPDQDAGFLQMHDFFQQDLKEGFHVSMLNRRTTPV

[3] = target: T3, CACNG3 (UniProt Q9JJV5); test: as above
T3 sequence: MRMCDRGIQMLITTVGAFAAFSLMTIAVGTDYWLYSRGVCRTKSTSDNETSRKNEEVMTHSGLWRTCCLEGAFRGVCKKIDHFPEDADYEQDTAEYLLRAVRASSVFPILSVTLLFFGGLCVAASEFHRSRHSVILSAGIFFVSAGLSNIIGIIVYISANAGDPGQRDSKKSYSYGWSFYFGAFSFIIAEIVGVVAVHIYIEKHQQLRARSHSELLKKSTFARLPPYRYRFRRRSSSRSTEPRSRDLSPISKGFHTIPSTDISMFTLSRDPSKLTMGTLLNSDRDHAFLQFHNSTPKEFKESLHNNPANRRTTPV

[4] = target: T4, CACNG5 (UniProt Q8VHW4); test: as above
T4 sequence: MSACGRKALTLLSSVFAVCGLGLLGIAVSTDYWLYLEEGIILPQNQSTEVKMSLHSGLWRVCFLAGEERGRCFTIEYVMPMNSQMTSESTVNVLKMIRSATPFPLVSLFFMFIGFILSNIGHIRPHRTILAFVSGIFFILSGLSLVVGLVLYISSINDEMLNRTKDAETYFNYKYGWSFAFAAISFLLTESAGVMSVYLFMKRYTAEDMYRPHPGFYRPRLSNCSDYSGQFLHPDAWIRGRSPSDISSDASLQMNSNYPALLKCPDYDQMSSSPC

[5] = target: T5, CACNG2 (UniProt O88602); test: as above
T5 sequence: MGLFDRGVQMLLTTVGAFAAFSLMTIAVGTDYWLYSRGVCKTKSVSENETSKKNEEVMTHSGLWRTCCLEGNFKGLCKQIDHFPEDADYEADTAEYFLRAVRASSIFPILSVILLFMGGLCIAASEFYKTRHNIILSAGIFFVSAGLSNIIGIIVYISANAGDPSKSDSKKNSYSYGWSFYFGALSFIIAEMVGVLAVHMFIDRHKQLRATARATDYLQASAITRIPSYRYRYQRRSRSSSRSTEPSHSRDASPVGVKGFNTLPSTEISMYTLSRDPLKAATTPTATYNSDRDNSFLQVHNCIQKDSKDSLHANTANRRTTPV

[6] = target: T6, Flag-tagged CACNG1 (N43A) (UniProt O70578); test: as above
T6 sequence: T1 sequence with N43A

[7] = target: T7, Flag-tagged CACNG1 (N43A/N80A) (UniProt O70578); test: as above
T7 sequence: T1 sequence with N43A, N80A

[8] = target: CACNG7 (UniProt P62956); test: as above
[9] = target: T8, Flag-tagged CACNG1 (N80A) (UniProt O70578); test: as above
T8 sequence: T1 sequence with N80A

| binding [1] | binding [2] | binding [3] | binding [4] | binding [5] | binding [6] | binding [7] | binding [8] | binding [9] | Substance |
| --- | --- | --- | --- | --- | --- | --- | --- | --- | --- |
| binds | – | – | – | – | – | – | – | – | Galectin-3 (Gal3), endogenous (from UniProt P16110 1-264) |
| – | binds weakly | binds weakly | binds weakly | binds weakly | binds | binds weakly | binds weakly | binds | GFP-tagged Gal3 (galectin-3) (from UniProt P16110 1-264) |

Source: article PMC11063191, “Galectin-3 impairs calcium transients and β-cell function” (Nature Communications, 2024)
